These results are taken from article PMC3747076.

By UniProt entry, the sequences of proteins in these tests, tags left out.
UniProt Q07955: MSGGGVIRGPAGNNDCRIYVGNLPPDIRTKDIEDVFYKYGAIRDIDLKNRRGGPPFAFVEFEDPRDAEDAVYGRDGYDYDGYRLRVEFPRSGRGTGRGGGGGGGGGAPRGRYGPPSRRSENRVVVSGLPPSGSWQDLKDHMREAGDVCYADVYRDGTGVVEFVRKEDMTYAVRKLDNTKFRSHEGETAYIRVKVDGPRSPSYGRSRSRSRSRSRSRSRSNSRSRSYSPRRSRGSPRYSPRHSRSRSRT
UniProt Q13242: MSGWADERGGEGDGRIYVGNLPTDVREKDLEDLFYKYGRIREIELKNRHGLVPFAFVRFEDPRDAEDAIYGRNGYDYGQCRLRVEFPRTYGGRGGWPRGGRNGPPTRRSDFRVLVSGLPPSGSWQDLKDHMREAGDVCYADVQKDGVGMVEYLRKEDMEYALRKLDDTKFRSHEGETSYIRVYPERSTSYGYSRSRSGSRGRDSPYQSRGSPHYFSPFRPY

No constants are given. Whether binding was seen depends on the method and setting. Binding seen in cells or lysates may run through a third protein. Some binding calls cover weakened binding; strength is not graded here. Sequences can lack the tags named with a protein.

This assay deals with T1, FLAG-tagged Transformer-2β (Tra2β) (human) (UniProt P62995).
T1 sequence: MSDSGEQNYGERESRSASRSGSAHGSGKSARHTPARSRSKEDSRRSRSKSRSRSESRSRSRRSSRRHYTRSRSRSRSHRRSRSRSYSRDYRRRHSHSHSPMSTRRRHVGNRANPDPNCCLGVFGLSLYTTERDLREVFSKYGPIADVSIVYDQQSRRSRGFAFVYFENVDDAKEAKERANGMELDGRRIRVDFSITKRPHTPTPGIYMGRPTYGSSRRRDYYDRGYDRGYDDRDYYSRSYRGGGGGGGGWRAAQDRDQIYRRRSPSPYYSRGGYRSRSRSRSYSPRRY
Briefly: co-IP; anti-FLAG antibody-agarose precipitates of RIPA lysates (with protease, phosphatase and ribonuclease inhibitors) of SH-SY5Y cells expressing FLAG-Tra2β, overnight at 4°C; immunoblot with antibodies specific to ASF/SF2 and SRp30c. For orientation: In western blotting, separated proteins are transferred to a membrane and probed.

For ASF/SF2 (from UniProt Q07955 1-248), the binding result is “binds”.

Take SRp30c (from UniProt Q13242 1-221): the binding result is given as “binds”.
